In publication PMC7158214 (Clinical Pharmacology and Therapeutics, 2020):

Columns and labels:
OATP1B [1] = details: +RIF600
OATP1B [2] = assay: Nonlinear regression of AUCR^-1 vs rifampicin Cmax; format: in vivo, human; details: from AUCR based on AUC0-24h

AUC0-24h Geometric Mean Ratio +RIF/Control (90% CI) (OATP1B [1]): 7.3
fRIF (fraction sensitive to inhibition by rifampicin) (OATP1B [2]): 0.918 ± 0.032
Compound: CC(C)c1c(C(=O)Nc2ccccc2)c(-c2ccccc2)c(-c2ccc(F)cc2)n1CC[C@@H](O)C[C@@H](O)CC(=O)O [Atorvastatin, atorvastatin]
